These are yes or no findings as the source states them, for the method shown. In cells and extracts the contact can be indirect. Some binding calls cover weakened binding; strength is not graded here.
Experiments:
[1] = biological target: T1, early endosome antigen 1 (mouse (endogenous in C8-D1A)) (UniProt Q8BL66); test: proximity ligation; Duolink in situ PLA (indirect, DNA-labelled secondary antibodies; signal when they are no more than 40 nm apart) in fixed C8-D1A astrocytes, untreated or stimulated with poly(I:C) for 1 h (EEA1) or 24 h (Rab7, LAMP1)
T1 sequence: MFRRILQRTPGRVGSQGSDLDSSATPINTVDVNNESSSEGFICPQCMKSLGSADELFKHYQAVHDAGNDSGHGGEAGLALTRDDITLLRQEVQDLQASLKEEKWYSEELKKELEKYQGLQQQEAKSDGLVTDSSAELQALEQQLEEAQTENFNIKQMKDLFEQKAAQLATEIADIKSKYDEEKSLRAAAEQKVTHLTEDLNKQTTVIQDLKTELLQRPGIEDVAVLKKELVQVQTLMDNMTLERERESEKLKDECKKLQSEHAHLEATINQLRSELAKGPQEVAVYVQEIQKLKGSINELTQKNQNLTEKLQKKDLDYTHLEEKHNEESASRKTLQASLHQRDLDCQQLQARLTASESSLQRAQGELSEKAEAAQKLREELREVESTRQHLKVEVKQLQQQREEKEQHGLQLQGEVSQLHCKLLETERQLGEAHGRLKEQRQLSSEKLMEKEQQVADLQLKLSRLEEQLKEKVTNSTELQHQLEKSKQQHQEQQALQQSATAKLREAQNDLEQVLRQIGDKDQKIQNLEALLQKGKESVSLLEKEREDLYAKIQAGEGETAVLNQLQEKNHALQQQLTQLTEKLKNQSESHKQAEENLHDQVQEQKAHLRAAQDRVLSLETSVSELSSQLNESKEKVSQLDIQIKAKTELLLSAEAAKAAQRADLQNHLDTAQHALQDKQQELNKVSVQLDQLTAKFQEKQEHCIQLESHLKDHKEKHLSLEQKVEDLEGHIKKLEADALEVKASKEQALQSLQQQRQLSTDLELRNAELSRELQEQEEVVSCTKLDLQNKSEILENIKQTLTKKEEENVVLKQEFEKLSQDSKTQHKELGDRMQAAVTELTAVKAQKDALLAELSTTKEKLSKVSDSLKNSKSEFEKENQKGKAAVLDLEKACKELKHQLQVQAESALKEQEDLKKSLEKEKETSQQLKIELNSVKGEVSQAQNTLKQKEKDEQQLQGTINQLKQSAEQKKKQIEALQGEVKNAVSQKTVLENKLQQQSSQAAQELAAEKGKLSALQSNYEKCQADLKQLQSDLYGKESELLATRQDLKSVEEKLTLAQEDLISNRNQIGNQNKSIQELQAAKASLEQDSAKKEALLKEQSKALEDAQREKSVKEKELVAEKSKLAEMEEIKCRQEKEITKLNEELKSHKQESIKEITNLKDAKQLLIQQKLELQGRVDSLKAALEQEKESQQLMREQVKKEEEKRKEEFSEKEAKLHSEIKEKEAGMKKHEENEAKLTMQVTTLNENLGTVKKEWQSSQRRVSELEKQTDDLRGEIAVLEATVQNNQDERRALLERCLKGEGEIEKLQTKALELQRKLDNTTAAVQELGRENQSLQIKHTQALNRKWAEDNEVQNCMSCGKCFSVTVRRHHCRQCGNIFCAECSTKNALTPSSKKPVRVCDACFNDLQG

Sequences of proteins named here, by UniProt entry; tags and fusion partners are left off. Residues count along the entry.
UniProt Q99MB1, residues 26-905: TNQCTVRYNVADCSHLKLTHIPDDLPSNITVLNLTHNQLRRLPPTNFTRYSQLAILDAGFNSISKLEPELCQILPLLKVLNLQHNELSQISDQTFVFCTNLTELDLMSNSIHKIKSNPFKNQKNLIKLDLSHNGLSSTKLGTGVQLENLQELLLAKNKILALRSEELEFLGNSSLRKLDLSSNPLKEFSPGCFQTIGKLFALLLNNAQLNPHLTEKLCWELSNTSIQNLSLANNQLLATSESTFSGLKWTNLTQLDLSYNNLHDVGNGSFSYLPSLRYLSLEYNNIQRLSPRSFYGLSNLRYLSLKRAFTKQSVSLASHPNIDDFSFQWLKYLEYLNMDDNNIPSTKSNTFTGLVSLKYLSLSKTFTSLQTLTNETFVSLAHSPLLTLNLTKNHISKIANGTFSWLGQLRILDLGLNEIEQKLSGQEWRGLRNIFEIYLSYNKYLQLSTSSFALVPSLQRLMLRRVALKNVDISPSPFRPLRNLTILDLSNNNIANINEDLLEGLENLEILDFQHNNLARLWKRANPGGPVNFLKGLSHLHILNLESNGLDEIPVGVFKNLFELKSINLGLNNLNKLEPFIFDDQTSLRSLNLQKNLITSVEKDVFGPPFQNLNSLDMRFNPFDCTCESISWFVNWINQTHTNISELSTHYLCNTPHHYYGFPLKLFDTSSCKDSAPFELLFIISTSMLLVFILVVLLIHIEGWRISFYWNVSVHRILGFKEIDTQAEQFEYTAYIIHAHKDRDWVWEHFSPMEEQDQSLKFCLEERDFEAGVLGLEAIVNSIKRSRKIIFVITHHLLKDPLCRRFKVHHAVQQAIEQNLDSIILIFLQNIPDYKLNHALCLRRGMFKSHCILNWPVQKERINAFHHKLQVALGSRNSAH

[2] = biological target: T2, lysosome-associated membrane protein 1 (mouse (endogenous in C8-D1A)) (UniProt P11438); test: as above
T2 sequence: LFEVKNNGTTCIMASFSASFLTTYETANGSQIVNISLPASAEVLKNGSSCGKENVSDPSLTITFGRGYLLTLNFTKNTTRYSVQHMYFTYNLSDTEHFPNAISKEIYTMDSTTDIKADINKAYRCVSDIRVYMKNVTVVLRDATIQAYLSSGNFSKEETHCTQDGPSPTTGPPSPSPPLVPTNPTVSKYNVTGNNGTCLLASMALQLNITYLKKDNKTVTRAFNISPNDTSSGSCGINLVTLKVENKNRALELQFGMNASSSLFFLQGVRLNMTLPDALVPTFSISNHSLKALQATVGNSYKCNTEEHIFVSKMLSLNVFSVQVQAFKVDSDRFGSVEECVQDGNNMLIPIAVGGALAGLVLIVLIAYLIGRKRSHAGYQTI

- binding [1]: binds
- binding [2]: binds
Substance: Toll-like receptor 3 (from UniProt Q99MB1 26-905)

From PMC7705377
